This assay concerns the target T1, vesicle-associated membrane protein 8 (mouse (endogenous in HT22)) (UniProt O70404).
T1 sequence: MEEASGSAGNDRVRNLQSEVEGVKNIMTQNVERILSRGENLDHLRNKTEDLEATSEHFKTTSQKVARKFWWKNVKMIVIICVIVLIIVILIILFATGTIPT
In words: co-IP; HT22 cell lysate incubated with Protein A + G magnetic beads conjugated to VAMP8 antibody (5 ug/ml) or normal IgG, 4 °C overnight; western blot; cells 2 h after OGD, with Lv-NSF, Lv-Ctrl, NSF siRNA or si-NC. Background: A western blot detects proteins with antibodies after separation by electrophoresis.

Results are given in words; binding and its absence hold for the method and conditions named. Binding seen in cells or lysates may run through a third protein. Some results given as binding are weak or reduced against the parent protein; the word gives no strength.

B1: Syntaxin-17 (protein, UniProt Q9D0I4 1-301)
chain: MSEDEEKVKLRRLEPAIQKFTKIVIPTDLERLRKHQINIEKYQRCRIWDKLHEEHINAGRTVQQLRSNIREMEKLCLKVHKDDLVLLKRMIDPVKEAAATATAEFLQLHLESVEELKKQVNDEELLQPSLTRSTTVDGVLHTGEAEAASQSLTQIYALPEIPQDQNAAESWETLEADLIELSHLVTDMSLLVSSQQEKIDSIADHVNSAAVNVEEGTKNLQKAAKYKLAALPVAGALIGGVVGGPIGLLAGFKVAGIAAALGGGVLGFTGGKLIQRRKQKMMEKLTSSCPDLPSQSDKKRS
In the case of B1, the binding result was “binds”.

(Values after publication PMC11330971.)
